## Library screening results

Amino acid sequences for entries named in this document (tags omitted).
UniProt E9BF75, entry or part of it: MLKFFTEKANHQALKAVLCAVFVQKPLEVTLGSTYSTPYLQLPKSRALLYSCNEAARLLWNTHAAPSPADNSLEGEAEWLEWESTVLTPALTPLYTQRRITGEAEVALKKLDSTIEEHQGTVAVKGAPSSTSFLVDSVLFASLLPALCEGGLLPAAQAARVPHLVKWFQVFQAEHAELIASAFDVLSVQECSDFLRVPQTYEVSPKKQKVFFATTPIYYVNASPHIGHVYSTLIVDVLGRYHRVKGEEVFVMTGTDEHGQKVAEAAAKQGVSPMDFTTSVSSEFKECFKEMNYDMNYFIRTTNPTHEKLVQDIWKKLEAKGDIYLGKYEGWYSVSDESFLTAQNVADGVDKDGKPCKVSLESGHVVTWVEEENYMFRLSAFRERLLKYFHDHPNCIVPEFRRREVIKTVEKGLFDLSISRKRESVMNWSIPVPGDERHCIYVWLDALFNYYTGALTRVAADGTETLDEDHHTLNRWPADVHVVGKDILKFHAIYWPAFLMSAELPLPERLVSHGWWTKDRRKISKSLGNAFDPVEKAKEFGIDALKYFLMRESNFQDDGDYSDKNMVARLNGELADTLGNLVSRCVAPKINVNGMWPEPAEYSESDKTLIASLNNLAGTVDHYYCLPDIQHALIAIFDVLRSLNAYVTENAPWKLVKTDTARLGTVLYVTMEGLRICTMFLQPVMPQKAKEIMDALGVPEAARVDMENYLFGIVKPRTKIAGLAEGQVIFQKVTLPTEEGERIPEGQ

Data taken from ChEMBL document CHEMBL3988442, “University of Dundee, Small-Polar-MMV Screening Library” (2021).

Results are percentages, as filed.
The record does not define 0% and 100%; most values in the screen are far below 50% and negative numbers occur (in some assays of this library far below -100).
The compounds are a random part of those screened.
A dash means the value is not listed here; it may have been measured.

A: 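Methionyl-tRNA synthetase (putative), Leishmania donovani (UniProt E9BF75). Primary screen of methionyl-tRNA synthetase; the read-out is not stated. The test concentration is not given. The values are filed as inhibition. Size under these conditions: about 68,000 compounds, about 24 of them at 50% or above in at least one test.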
B: 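Assay on Mycobacterium tuberculosis, filed only as a heat shock assay from Cornell; the read-out is not stated. The concentration is filed as 10 mM, unlikely as a test dose, so the dose is not known. Higher reads as stronger inhibition (inferred: compounds with an IC50 in retests scored well above the rest). About 69,000 compounds were tested under these conditions; 1.4% (about 930) showed 50% or more at least once.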

compound,A,B
[H][C@]12CN(C(=O)c3cnccc3C)C[C@@]1(C(=O)O)CN(c1ncccn1)C2,-,-17.65
COc1cc(CNC2CCCN(c3ncccn3)C2)cc2c1OCO2 (stereo not shown),14.09,5.235
Cc1ccsc1[C@@H]1CCN(C(=O)Cn2cc3ccccc3n2)C[C@H]1O,14.52,0.5079
OCCOCc1n[nH]c2c1CN(Cc1ccccn1)C2,14.01,-
Cc1cc(C)cc(NC(=O)Nc2c(O)oc3ccccc3c2=O)c1,9.348,-15.85
O=C(O)C(F)(F)F.c1ccc(Cn2cc3c(n2)C(COCC2CC2)OCC3)nc1 (stereo not shown),-,-22.41
O=c1cc2c(nn1CN1CCSCC1)CCC2,7.759,-9.199
O=C(c1ccccc1)N1CCO[C@@H]2CN(c3cnccn3)C[C@@H]2C1,15.22,-
Cc1cnc2c(c1NCc1cccnc1)c(=O)n(C)c(=O)n2C,6.034,1.759
COc1ccccc1CN1CC[C@H]2C[C@@H](C(=O)N3CCCC3)O[C@H]2C1,13.73,-
O=C(CCc1ccccn1)N1CCCC1,9.392,2.342
C[C@@H]1CN(Cc2ccsc2)C[C@]12CCN(Cc1cccnc1)C2=O.O=C(O)C(F)(F)F.O=C(O)C(F)(F)F,-,-31.48
NC(=O)COc1ccc(C(=O)N2CCCC(n3ccnc3)C2)cc1 (stereo not shown),25,-3.096
CC(NC(=O)NCCCn1cncn1)c1ccc(C#N)cc1 (stereo not shown),10.48,5.989
CCc1ncc2c(n1)CN(CC(=O)NCCOc1ccccc1)CC2,20.47,1.528
CCN(C)Cc1cccc(CNC(=O)CSCc2ccncc2)c1,9.524,9.654
COc1ccc(CN2CCCC3(CC2)CNC(=O)O3)cc1OC (stereo not shown),6.964,-25.68
CC(C)NC(=O)[C@]12COC[C@H]1CN(Cc1cnn(C)c1)C2,16.24,-
Cc1ccc(C(=O)N2Cc3c(CN4CCCCC4)nn(C)c3C2)o1.O=C(O)C(F)(F)F,-,-16.22
CC(C)C(=O)N1CCCC(c2ncncc2-c2ccncc2)C1 (stereo not shown),2.439,-19.42
CC1COCCN1Cc1nc(-c2cccs2)no1 (stereo not shown),4.575,0.8241
c1ccc(CCN2CCOC(Cn3cccn3)C2)nc1 (stereo not shown),9.722,-44.86
CCN(Cc1nc(COC)no1)C(=O)CCn1c(C)cc2ccccc21,27.82,35.71
[H][C@@]12CCN(Cc3c(C)noc3C)C[C@@]1([H])O[C@H](c1ccnc(C)n1)C2,-,-25.77
CCC(=O)N1CCN(C(=O)Nc2cccc(N3CCOCC3)c2)CC1,17.06,6.043
O=C1N(CC2CC2)CCCC1(O)CN1CCc2[nH]ncc2C1 (stereo not shown),7.258,-0.7075
CCCS(=O)(=O)N1Cc2nccn2CC(CN2CCCC2)C1 (stereo not shown),7.904,-
Cc1nccn1-c1ccc(CNS(=O)(=O)N2CCCCC2C)cn1 (stereo not shown),20.41,-33.72
Cc1oncc1S(=O)(=O)N1CCCC(C)(Cc2ccc3c(c2)OCO3)C1 (stereo not shown),4.53,-12.66
O=C(CN1CCc2c(ncn2C2CC2)C1)NC1CCN(C2CC2)CC1,10.93,-49.11
O=C(Nc1nc2c(s1)CN(C(=O)NCc1cccs1)CC2)C1CC1,13.19,1.883
COCc1cn(C2CCN(C(=O)c3ccc(F)c(C)c3)CC2)nn1,7.258,-19.56
Cl.Cn1ncc2c1CCCC2NCc1cccc(C(F)(F)F)c1 (stereo not shown),-,-11.28
Cc1csc(C2CCCN(C(=O)c3cccc4c3OCO4)C2)n1 (stereo not shown),16.91,-5.144
N#Cc1ccc(F)c(CN2CCCC2Cn2cnc3ccccc32)c1 (stereo not shown),7.937,16.34
CCCC(=O)NCCCn1ncc2c(C)cccc21,-12.31,-0.09617
CN(C)Cc1nnc2n1CCN(c1cnccn1)CC2.O=C(O)C(F)(F)F,-,-11.15
Fc1cccc(-n2cc(CN3CCCCC3CCn3ccnc3)cn2)c1 (stereo not shown),9.946,0.6959
Cc1cnc(CN(C)Cc2cccc(OC(F)(F)F)c2)cn1,7.542,-21.96
O=C(NC[C@]12COC[C@H]1CN(Cc1cccnc1)C2)C1CCC1,14.08,-
CC[C@H](Nc1nc(C(C)C)nc2c1cnn2C)c1ccccc1,1.795,7
COc1cccc2cc(CNCc3ccnc(N4CCCCC4)c3)oc12,27.78,-1.421
O=C1CCCN1c1cccc(CNCc2cc(F)ccc2F)c1,2.507,0.328
CCN1CC[C@@]2(C(=O)N(C)C)CCN(C(=O)NC(C)C)CC[C@@H]12,9.444,-
CN(C)c1ncccc1CNS(=O)(=O)c1ccc(C(N)=O)cc1,17.75,-6.143
CCOCC(=O)N1CC[C@H]2OCC[C@@H](c3nnc(C)o3)[C@H]2C1,12.41,-
CCC(=O)Nc1ccc(N2CCC(OC)CC2)c(C(F)(F)F)c1,11.91,-12.81
CC(=O)Nc1ccc(CNCC(O)c2ccc(C)cc2)cc1 (stereo not shown),25.99,-25.73
CC(C)NC(=O)N1CCC2(CCC(=O)N2CCN(C)C)CC1.O=C(O)C(F)(F)F,-,-12.81
COc1ccccc1CC(C)N(C)CCS(C)(=O)=O (stereo not shown),10.99,7.01
O=C(c1ccc(Cl)cc1)N1CCC(N2CCCOC2=O)CC1,12,-7.814
Cc1cc(F)ccc1-n1cc(O)c(C(=O)NCC[S+](C)[O-])n1 (stereo not shown),-0.271,12.63
[H][C@]12CC[C@]([H])(CN(C(=O)c3ccccc3)C1)N(C(=O)CN1CCOCC1)C2,-,7.551
CC(C)(O)CN1CCN(C(=O)c2cccn2Cc2ccccc2)CC1,21.24,-4.614
N#CC1(NC(=O)c2ccc(F)cc2OC(F)F)CCOCC1,9.777,-17.92
COc1ccc(C2(NC(=O)C3CC(=O)N(C)C3)CCCC2)cc1 (stereo not shown),14.16,10.75

For reference, 5 entries once more:

compound,A,B
CCC(=O)N1CCN(C(=O)Nc2cccc(N3CCOCC3)c2)CC1,17.06,6.043
O=C(CCc1ccccn1)N1CCCC1,9.392,2.342
OCCOCc1n[nH]c2c1CN(Cc1ccccn1)C2,14.01,-
CCC(=O)Nc1ccc(N2CCC(OC)CC2)c(C(F)(F)F)c1,11.91,-12.81
COc1cc(CNC2CCCN(c3ncccn3)C2)cc2c1OCO2 (stereo not shown),14.09,5.235